Measurements reported in PMC10275993.
No constants are given. Whether binding was seen depends on the method and setting. In cells and extracts the contact can be indirect. Some entries that bind do so weakly or less than the wild type. For some of these results: Tags and fused reporters may be left off the sequences shown.

The chains behind the UniProt entries cited, without tags or fusion partners.
UniProt P06748: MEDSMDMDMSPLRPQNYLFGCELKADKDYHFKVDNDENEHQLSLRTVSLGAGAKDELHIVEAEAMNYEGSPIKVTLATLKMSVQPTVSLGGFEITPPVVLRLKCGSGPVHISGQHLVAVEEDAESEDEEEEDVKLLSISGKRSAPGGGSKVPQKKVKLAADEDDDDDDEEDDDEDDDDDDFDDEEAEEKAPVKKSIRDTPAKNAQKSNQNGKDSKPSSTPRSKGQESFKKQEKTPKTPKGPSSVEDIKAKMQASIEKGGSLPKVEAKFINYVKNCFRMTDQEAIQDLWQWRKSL

Key:
Experiment in all cases: co-IP; 1 nmol synthetic HA-tagged (XR)12 peptide mixed with HEK293 lysate (200 μg/sample), anti-HA antibody beads, 4 h at 4°C, IP buffer 150 mM NaCl, 20 mM HEPES pH 7.4, 1 mM EDTA, 0.5% Triton X-100; immunoblot of endogenous proteins; only the target purified
[1] = molecular target: T1, HA-(PR)12 (human)
T1 sequence (peptide): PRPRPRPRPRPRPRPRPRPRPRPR

[2] = molecular target: HA-(QR)12
[3] = molecular target: HA-(YR)12

## nucleophosmin (NPM1) (from UniProt P06748 1-294)
[1]
  binding: binds

B1: Non-POU domain-containing octamer-binding protein (NONO) (protein, UniProt Q15233 1-471)
chain: MQSNKTFNLEKQNHTPRKHHQHHHQQQHHQQQQQQPPPPPIPANGQQASSQNEGLTIDLKNFRKPGEKTFTQRSRLFVGNLPPDITEEEMRKLFEKYGKAGEVFIHKDKGFGFIRLETRTLAEIAKVELDNMPLRGKQLRVRFACHSASLTVRNLPQYVSNELLEEAFSVFGQVERAVVIVDDRGRPSGKGIVEFSGKPAARKALDRCSEGSFLLTTFPRPVTVEPMDQLDDEEGLPEKLVIKNQQFHKEREQPPRFAQPGSFEYEYAMRWKALIEMEKQQQDQVDRNIKEAREKLEMEMEAARHEHQVMLMRQDLMRRQEELRRMEELHNQEVQKRKQLELRQEEERRRREEEMRRQQEEMMRRQQEGFKGTFPDAREQEIRMGQMAMGGAMGINNRGAMPPAPVPAGTPAPPGPATMMPDGTLGLTPPTTERFGQAATMEGIGAIGGTPPAFNRAAPGAEFAPNKRRRY
[2]
  binding: binds
[3]
  binding: binds
[1]
  binding: binds
